From the supplement of paper PMC10849652
Some of the results follow.

Sequences of proteins named here, by UniProt entry; tags and fusion partners are left off. A change or cut given only in a name is not applied to a line headed by its entry.
UniProt Q99933: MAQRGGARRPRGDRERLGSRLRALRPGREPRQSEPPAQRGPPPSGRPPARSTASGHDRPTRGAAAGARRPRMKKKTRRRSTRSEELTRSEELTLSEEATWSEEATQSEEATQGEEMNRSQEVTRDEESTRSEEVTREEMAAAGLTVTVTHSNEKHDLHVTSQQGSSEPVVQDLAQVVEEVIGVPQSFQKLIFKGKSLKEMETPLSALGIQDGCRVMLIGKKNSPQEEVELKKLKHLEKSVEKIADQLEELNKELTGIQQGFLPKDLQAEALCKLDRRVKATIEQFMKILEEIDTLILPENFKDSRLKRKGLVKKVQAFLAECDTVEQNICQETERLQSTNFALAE
UniProt Q6QNY1: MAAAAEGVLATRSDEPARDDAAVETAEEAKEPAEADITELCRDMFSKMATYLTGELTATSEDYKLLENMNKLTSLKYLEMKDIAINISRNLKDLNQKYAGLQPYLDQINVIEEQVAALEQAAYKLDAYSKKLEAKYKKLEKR
UniProt O75934: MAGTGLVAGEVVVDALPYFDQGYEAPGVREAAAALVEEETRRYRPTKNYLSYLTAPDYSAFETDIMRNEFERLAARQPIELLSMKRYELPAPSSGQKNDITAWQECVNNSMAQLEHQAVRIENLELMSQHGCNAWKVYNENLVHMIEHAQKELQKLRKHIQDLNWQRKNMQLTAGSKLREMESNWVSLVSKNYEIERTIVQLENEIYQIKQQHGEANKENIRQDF
UniProt Q7KYR7: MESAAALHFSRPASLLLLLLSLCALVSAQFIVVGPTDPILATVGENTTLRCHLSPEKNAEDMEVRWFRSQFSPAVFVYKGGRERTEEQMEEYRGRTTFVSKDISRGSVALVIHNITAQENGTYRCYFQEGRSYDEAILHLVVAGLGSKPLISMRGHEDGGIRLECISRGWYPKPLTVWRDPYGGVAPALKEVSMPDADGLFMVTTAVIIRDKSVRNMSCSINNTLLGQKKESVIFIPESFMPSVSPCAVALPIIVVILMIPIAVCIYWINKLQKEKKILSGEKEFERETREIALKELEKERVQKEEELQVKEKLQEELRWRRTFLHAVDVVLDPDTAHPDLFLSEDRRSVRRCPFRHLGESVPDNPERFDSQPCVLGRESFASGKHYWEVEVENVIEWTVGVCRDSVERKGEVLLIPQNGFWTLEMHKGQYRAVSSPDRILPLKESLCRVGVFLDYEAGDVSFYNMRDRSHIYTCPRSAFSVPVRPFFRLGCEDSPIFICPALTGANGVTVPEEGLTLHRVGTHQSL
UniProt Q96G01: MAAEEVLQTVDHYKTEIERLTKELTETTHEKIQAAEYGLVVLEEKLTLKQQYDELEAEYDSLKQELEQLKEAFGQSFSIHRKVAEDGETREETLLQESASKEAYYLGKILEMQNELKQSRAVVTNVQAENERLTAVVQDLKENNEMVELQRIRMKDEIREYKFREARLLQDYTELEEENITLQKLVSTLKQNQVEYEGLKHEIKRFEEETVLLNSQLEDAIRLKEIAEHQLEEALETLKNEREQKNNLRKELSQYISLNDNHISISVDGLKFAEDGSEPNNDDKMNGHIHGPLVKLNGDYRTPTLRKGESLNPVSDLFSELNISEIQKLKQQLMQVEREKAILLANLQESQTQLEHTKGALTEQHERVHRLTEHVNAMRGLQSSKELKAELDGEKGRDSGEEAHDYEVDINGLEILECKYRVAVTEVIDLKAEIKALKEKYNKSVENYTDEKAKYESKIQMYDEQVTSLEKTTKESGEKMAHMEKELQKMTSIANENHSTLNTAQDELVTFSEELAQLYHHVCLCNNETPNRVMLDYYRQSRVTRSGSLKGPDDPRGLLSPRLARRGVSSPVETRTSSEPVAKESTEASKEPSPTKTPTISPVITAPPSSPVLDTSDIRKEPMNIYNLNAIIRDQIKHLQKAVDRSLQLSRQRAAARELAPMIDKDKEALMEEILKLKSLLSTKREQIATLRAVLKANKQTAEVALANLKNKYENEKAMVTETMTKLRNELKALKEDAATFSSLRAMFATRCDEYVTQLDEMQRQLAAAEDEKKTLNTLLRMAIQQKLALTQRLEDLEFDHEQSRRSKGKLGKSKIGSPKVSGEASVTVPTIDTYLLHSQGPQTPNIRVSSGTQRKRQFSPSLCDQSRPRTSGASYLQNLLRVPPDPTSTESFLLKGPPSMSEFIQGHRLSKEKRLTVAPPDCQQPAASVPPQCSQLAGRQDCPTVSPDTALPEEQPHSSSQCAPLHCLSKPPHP
UniProt P56945: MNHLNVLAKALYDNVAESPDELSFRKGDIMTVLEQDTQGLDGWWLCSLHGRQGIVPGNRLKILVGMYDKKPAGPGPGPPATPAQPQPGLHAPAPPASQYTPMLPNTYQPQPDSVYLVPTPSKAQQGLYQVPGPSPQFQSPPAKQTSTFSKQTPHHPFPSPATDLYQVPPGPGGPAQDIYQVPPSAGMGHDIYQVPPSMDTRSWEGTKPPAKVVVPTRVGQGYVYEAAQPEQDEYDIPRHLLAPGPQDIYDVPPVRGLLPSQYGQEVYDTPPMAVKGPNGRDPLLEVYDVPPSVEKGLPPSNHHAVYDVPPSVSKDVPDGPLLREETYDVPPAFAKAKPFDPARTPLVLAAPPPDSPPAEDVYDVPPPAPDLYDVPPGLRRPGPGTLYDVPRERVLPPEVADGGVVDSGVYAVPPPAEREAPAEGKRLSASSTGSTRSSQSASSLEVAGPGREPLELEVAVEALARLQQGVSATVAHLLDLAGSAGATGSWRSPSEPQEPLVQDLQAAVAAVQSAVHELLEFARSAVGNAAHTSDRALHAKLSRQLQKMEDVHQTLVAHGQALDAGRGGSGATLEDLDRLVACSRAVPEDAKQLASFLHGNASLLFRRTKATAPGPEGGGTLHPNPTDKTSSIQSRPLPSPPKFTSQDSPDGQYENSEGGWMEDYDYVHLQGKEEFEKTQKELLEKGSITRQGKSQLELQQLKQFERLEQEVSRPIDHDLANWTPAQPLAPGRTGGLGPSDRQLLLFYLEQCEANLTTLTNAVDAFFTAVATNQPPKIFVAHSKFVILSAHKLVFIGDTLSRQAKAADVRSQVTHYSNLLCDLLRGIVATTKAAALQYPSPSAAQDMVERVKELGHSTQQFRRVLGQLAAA
UniProt Q10589, whole entry, looked up: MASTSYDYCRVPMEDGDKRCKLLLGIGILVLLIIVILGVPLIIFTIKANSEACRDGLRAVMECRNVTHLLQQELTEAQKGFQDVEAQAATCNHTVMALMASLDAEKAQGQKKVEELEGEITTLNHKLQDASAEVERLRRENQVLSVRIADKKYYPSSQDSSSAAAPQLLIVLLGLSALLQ
UniProt Q8NFC6: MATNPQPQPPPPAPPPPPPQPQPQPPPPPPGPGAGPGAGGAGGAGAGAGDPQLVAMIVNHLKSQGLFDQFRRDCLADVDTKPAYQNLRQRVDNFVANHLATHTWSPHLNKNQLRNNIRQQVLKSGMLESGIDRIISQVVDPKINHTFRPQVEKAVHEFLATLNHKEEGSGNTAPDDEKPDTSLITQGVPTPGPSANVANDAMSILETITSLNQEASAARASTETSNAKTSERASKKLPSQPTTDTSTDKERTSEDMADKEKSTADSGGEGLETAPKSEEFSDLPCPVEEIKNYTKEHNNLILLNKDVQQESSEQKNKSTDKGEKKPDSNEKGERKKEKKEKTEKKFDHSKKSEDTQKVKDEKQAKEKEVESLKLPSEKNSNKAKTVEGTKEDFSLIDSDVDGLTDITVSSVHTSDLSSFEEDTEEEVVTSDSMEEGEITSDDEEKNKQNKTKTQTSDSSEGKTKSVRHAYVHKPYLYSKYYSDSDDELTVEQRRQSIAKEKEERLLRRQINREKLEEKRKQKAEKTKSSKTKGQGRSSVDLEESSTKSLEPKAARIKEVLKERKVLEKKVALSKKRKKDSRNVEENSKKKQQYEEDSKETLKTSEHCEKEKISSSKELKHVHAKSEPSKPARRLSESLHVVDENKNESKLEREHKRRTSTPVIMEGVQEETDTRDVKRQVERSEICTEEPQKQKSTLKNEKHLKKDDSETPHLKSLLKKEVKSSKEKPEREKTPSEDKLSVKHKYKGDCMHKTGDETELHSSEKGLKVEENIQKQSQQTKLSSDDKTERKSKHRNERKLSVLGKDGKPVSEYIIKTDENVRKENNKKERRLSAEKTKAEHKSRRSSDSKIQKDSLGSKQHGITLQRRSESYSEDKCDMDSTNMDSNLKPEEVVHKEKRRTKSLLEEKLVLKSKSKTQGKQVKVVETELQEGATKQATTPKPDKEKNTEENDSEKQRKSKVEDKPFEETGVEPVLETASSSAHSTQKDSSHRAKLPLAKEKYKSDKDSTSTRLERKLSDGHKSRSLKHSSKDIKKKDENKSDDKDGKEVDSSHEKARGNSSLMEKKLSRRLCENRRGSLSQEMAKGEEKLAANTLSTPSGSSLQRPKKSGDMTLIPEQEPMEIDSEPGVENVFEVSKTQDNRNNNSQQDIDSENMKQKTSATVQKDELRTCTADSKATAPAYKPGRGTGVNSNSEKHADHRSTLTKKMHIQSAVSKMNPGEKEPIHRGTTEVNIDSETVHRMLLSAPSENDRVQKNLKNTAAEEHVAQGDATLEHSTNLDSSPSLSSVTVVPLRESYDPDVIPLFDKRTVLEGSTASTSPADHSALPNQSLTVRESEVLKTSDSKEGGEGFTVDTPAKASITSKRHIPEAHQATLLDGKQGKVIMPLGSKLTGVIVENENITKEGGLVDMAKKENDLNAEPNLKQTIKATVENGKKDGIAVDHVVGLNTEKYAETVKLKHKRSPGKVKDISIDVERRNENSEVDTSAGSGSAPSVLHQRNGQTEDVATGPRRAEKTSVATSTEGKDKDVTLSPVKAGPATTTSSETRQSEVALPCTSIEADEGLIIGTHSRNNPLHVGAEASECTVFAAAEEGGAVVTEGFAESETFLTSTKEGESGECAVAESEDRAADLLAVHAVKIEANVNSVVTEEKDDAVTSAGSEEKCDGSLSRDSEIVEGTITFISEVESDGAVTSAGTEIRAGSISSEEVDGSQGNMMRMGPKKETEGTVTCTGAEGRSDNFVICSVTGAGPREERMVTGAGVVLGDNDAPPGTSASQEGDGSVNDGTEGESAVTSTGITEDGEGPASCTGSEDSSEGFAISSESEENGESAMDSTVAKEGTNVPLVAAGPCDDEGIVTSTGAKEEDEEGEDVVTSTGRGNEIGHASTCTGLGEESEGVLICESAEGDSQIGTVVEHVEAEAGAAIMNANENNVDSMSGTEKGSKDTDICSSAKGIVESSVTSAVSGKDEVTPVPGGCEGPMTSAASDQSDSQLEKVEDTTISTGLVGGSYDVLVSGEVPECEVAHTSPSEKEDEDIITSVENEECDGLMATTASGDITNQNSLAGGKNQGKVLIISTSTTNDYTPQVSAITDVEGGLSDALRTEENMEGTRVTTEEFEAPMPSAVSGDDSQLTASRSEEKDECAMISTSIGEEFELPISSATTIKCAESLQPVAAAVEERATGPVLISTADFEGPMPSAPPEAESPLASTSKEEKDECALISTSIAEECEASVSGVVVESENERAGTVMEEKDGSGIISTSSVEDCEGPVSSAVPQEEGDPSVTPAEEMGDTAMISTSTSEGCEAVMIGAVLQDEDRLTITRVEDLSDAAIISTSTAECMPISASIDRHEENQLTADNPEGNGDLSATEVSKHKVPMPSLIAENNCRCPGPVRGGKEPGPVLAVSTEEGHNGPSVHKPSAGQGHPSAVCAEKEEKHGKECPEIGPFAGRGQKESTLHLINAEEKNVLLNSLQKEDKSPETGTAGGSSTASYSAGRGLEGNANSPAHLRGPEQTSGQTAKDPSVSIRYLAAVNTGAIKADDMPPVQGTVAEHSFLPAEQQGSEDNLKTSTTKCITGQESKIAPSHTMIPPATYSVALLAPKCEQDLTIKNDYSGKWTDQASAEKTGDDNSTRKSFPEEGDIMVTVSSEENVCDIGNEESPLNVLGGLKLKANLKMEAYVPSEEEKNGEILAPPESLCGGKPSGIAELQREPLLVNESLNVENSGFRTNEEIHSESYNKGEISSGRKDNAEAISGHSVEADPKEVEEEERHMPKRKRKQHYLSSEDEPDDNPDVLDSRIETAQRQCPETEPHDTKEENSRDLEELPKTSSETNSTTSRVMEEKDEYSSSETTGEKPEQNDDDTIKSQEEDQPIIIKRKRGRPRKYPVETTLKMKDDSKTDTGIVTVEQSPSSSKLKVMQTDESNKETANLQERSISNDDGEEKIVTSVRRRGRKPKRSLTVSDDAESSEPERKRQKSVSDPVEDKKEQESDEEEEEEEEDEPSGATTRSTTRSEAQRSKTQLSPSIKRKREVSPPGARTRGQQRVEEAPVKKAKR
UniProt Q9BXH1: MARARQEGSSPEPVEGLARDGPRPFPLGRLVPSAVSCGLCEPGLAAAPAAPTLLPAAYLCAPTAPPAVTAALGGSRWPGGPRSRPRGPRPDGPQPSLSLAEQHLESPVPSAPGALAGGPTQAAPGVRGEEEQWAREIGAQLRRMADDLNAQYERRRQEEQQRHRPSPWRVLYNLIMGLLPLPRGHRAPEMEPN

Tests used:
Experiment in all cases: log2 fold change, soluble protein after heating vs DMSO (PISA); higher = thermal stabilisation; K562 lysate, 10 uM; active = over 0.2 and 3.5 SD of the protein, either way, in both replicates (recomputed)
vemurafenib = compound: CCCS(=O)(=O)Nc1ccc(F)c(C(=O)c2c[nH]c3ncc(-c4ccc(Cl)cc4)cc23)c1F [vemurafenib]
Summary of the method: (§1)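 Quantification was by TMTpro 16plex LC-MS/MS with equalised channel sums, applied to the supernatant after 21,000xg for 90 min. Samples were crude K562 extract at 1 mg/mL protein in PBS pH 7.4 with 1 mM MgCl2, treated with 10 μM compound for 30 min, heated for 3 min across 48°C-58°C, pooled and brought to 0.5% NP-40 at 4°C. Values are log-two fold changes in thermal stability relative to solvent controls, from duplicates.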

[1] = compound: CCCS(=O)(=O)Nc1ccc(F)c(C(=O)c2c[nH]c3ncc(Cl)cc23)c1F
Summary of the method: as §1

barasertib = compound: CCN(CCCOc1ccc2c(Nc3cc(CC(=O)Nc4cccc(F)c4)[nH]n3)ncnc2c1)CCOP(=O)(O)O [barasertib]
Summary of the method: as §1

[2] = compound: CC[C@@H]1C(=O)N(C)c2cnc(Nc3ccc(C(=O)NC4CCN(C)CC4)cc3OC)nc2N1C1CCCC1
Summary of the method: as §1

volasertib = compound: CC[C@@H]1C(=O)N(C)c2cnc(Nc3ccc(C(=O)N[C@H]4CC[C@H](N5CCN(CC6CC6)CC5)CC4)cc3OC)nc2N1C(C)C [volasertib]
Summary of the method: as §1

[3] = compound: CCn1c(C(=O)N(C2CC2)C2CC2)cc2c3c(ncn3C)c(Nc3cc(C)n(C)n3)nc21
Summary of the method: as §1

[4] = compound: CCn1cc(-c2ccnc3[nH]c(-c4cccc(CN(C)C)c4)cc23)c(-c2ccc(NC(=O)N(C)C)cc2)n1
Summary of the method: as §1

[5] = compound: CN1CCC(CNc2ccc3ncc(-c4cccc(OC(F)(F)F)c4)n3n2)CC1
Summary of the method: as §1

saracatinib = compound: CN1CCN(CCOc2cc(OC3CCOCC3)c3c(Nc4c(Cl)ccc5c4OCO5)ncnc3c2)CC1 [saracatinib]
Summary of the method: as §1

sotrastaurin = compound: CN1CCN(c2nc(C3=C(c4c[nH]c5ccccc45)C(=O)NC3=O)c3ccccc3n2)CC1 [sotrastaurin]
Summary of the method: as §1

alvocidib = compound: CN1CC[C@H](c2c(O)cc(O)c3c(=O)cc(-c4ccccc4Cl)oc23)[C@H](O)C1 [alvocidib]
Summary of the method: as §1

Tubastatin A = compound: CN1CCc2c(c3ccccc3n2Cc2ccc(C(=O)NO)cc2)C1 [Tubastatin A]
Summary of the method: as §1

[6] = compound: CNC(=O)C1=CC=CC=C1NC2=NC(=NC=C2Cl)NC3=C(C=C(C=C3)N4CCOCC4)OC
Summary of the method: as §1

defactinib = compound: CNC(=O)c1ccc(Nc2ncc(C(F)(F)F)c(NCc3nccnc3N(C)S(C)(=O)=O)n2)cc1 [defactinib]
Summary of the method: as §1

[7] = compound: CNc1nc(-c2ccc3c(N)n[nH]c3c2)cc(N2C[C@@H](C(=O)NC3CCCCC3)CC[C@H]2C)n1
Summary of the method: as §1

encorafenib = compound: COC(=O)N[C@@H](C)CNc1nccc(-c2cn(C(C)C)nc2-c2cc(Cl)cc(NS(C)(=O)=O)c2F)n1 [encorafenib]
Summary of the method: as §1

[8] = compound: COC(=O)[C@H](CCSC)NC(=O)C1=C(C=C(C=C1)NC[C@H](CS)N)C2=CC=CC=C2
Summary of the method: as §1

alisertib = compound: COc1cc(Nc2ncc3c(n2)-c2ccc(Cl)cc2C(c2c(F)cccc2OC)=NC3)ccc1C(=O)O [alisertib]
Summary of the method: as §1

[9] = compound: COc1cc2nc(-c3cc(F)ccc3O)nc(N[C@@H]3CNC[C@H]3C(C)(C)O)c2cc1OC
Summary of the method: as §1

gefitinib = compound: COc1cc2ncnc(Nc3ccc(F)c(Cl)c3)c2cc1OCCCN1CCOCC1 [gefitinib]
Summary of the method: as §1

Target | log2 fold change (vemurafenib) | log2 fold change [1] | log2 fold change (barasertib) | log2 fold change [2] | log2 fold change (volasertib) | log2 fold change [3] | log2 fold change [4] | log2 fold change [5] | log2 fold change (saracatinib) | log2 fold change (sotrastaurin) | log2 fold change (alvocidib) | log2 fold change (Tubastatin A) | log2 fold change [6] | log2 fold change (defactinib) | log2 fold change [7] | log2 fold change (encorafenib) | log2 fold change [8] | log2 fold change (alisertib) | log2 fold change [9] | log2 fold change (gefitinib)
BCAT2 (UniProt O15382) | inactive: -0.002 | inactive: 0.003 | inactive: -0.019 | inactive: 0.017 | inactive: 0.017 | inactive: 0.016 | inactive: 0.066 | inactive: 0.039 | inactive: -0.005 | inactive: -0.024 | inactive: -0.016 | inactive: 0.031 | inactive: 0.012 | inactive: -0.004 | inactive: 0.018 | inactive: -0.032 | inactive: -0.053 | inactive: 0.005 | inactive: 0.004 | inactive: 0.001
BNIP2 (UniProt J3KN59) | inactive: 0.025 | inactive: 0.01 | inactive: 0.002 | inactive: 0.11 | inactive: 0.003 | inactive: 0.06 | inactive: -0.07 | inactive: 0.058 | inactive: 0.02 | inactive: 0.01 | inactive: -0.016 | inactive: -0.087 | inactive: 0.022 | inactive: -0.003 | inactive: -0.041 | inactive: -0.057 | inactive: 0.011 | inactive: -0.15 | inactive: -0.038 | inactive: -0.207
BAG2 (UniProt O95816) | inactive: -0.012 | inactive: -0.032 | inactive: 0.026 | inactive: 0.019 | inactive: 0.029 | inactive: 0.009 | inactive: 0.072 | inactive: -0.021 | inactive: -0.016 | inactive: 0.006 | inactive: 0.017 | inactive: -0.002 | inactive: -0.014 | inactive: -0.023 | inactive: -0.13 | inactive: -0.005 | inactive: -0.101 | inactive: -0.006 | inactive: -0.03 | inactive: -0.004
BAG1 (UniProt Q99933) | inactive: -0.025 | inactive: 0.01 | inactive: 0.017 | inactive: 0.013 | inactive: 0.004 | inactive: -0.023 | inactive: -0.081 | inactive: 0.153 | inactive: -0.015 | inactive: -0.04 | inactive: -0.076 | inactive: 0.043 | inactive: 0.005 | inactive: -0.013 | inactive: 0.392 | inactive: -0.015 | inactive: 0.012 | inactive: -0.012 | inactive: 0.008 | inactive: -0.018
BMP2K (UniProt Q9NSY1) | inactive: -0.017 | inactive: -0.105 | inactive: -0.017 | inactive: 0.043 | inactive: 0.056 | inactive: 0.062 | inactive: 0.03 | inactive: 0.865 | inactive: -0.018 | inactive: 0.048 | inactive: -0.026 | inactive: -0.151 | inactive: 0.541 | inactive: 0.303 | inactive: 0.376 | inactive: -0.22 | inactive: -0.199 | inactive: -0.001 | inactive: -0.037 | inactive: 0.066
BLOC1S2 (UniProt Q6QNY1) | inactive: 0.097 | inactive: -0.009 | inactive: 0.082 | inactive: 0.102 | inactive: 0.057 |  | inactive: -0.032 | inactive: 0.146 | inactive: -0.081 | inactive: 0.315 | inactive: -0.037 |  | inactive: -0.009 | inactive: 0.006 | inactive: 0 | inactive: 0.032 | inactive: -0.061 | inactive: 0.024 | inactive: -0.031 | inactive: 0.066
BCL9L (UniProt Q86UU0) | inactive: -0.023 | inactive: 0.038 | inactive: -0.02 |  | inactive: 0.03 | inactive: -0.055 | inactive: 0.044 | inactive: 0.058 | inactive: 0.031 | inactive: 0.016 | inactive: -0.049 | inactive: 0.205 | inactive: -0.015 | inactive: 0.093 | inactive: 0.087 |  |  | inactive: 0.005 | inactive: 0.012 | inactive: -0.051
BCAS2 (UniProt O75934) | inactive: 0.053 | inactive: 0.019 | inactive: 0.11 | inactive: 0.03 | inactive: -0.023 | inactive: -0.006 | inactive: -0.066 | inactive: -0.037 | inactive: -0.024 | inactive: -0.013 | inactive: -0.001 | inactive: -0.013 | inactive: -0.028 | inactive: 0.024 | inactive: 0.039 | inactive: 0.032 | inactive: -0.061 | inactive: -0.011 | inactive: -0.018 | inactive: -0.04
BTN2A1 (UniProt Q7KYR7) | inactive: 0.055 | inactive: -0.063 | inactive: 0.004 | inactive: 0.224 | inactive: 0.004 | inactive: 0.043 | inactive: -0.009 | inactive: -0.036 | inactive: -0.08 | inactive: -0.084 | inactive: -0.016 | inactive: 0.072 | inactive: -0.003 | inactive: 0.052 | inactive: 0.067 | inactive: 0.039 | inactive: -0.004 | inactive: 0.018 | inactive: 0.067 | inactive: 0.036
BICD1 (UniProt Q96G01) | inactive: -0.083 | inactive: -0.004 | inactive: -0.054 | inactive: 0.055 | inactive: -0.008 | inactive: -0.003 | inactive: -0.104 | inactive: 0.054 | inactive: 0.023 | inactive: 0.003 | inactive: -0.01 | inactive: 0.012 | inactive: 0.017 | inactive: 0.011 | inactive: 0.012 | inactive: -0.016 | inactive: 0.067 | inactive: 0.025 | inactive: 0.009 | inactive: -0.035
BCAS3 isoform 8 (UniProt Q9H6U6) | inactive: 0.025 | inactive: 0.03 | inactive: -0.089 | inactive: 0.054 | inactive: -0.023 | inactive: 0.032 | inactive: 0.01 | inactive: 0.105 | inactive: 0.041 | inactive: -0.042 | inactive: -0.13 | inactive: 0.021 | inactive: -0.05 | inactive: -0.006 | inactive: 0.113 | inactive: -0.108 | inactive: -0.066 |  | inactive: 0.017 | 
BCAR1 isoform 6 (UniProt P56945) | inactive: 0.038 | inactive: 0.018 | inactive: 0.015 | inactive: -0.065 | inactive: -0.018 | inactive: -0.003 | inactive: 0.064 | inactive: -0.012 | inactive: 0.032 | inactive: -0.038 | inactive: 0.074 | inactive: -0.009 | inactive: 0.009 | inactive: -0.032 | inactive: 0.012 | inactive: 0.018 | inactive: 0.014 | inactive: 0.009 | inactive: 0.08 | inactive: 0.065
BST2 (UniProt Q10589) | inactive: -0.015 | inactive: -0.021 | inactive: 0.009 | inactive: 0 | inactive: 0.001 | inactive: 0 | inactive: -0.061 | inactive: 0.057 | inactive: 0.037 | inactive: 0.002 | inactive: -0.018 | inactive: 0.014 | inactive: -0.007 | inactive: -0.037 | inactive: -0.072 | inactive: 0.011 | inactive: -0.056 | inactive: 0.001 | inactive: 0.04 | inactive: 0.006
BOD1L1 (UniProt Q8NFC6) | inactive: -0.02 | inactive: 0.015 | inactive: 0.035 | inactive: 0.068 | inactive: 0.02 | inactive: -0.026 | inactive: -0.046 | inactive: 0.04 | inactive: 0.012 | inactive: 0.003 | inactive: -0.028 | inactive: 0.04 | inactive: 0.024 | inactive: 0.013 | inactive: 0.008 | inactive: 0.011 | inactive: 0.008 | inactive: -0.009 | inactive: 0.02 | inactive: -0.007
BLVRB (UniProt P30043) | inactive: 0.012 | inactive: -0.012 | inactive: 0.006 | inactive: -0.001 | inactive: -0.027 | inactive: 0.045 | inactive: -0.048 | inactive: 0.002 | inactive: -0.022 | inactive: 0.017 | inactive: -0.003 | inactive: -0.04 | inactive: 0.041 | inactive: -0.018 | inactive: -0.021 | inactive: -0.001 | inactive: 0.011 | inactive: -0.003 | inactive: 0.009 | inactive: 0.027
BBC3 (UniProt Q9BXH1) | inactive: -0.218 | inactive: -0.02 | inactive: 0.118 | inactive: 0.125 | inactive: 0.015 | inactive: 0.078 | inactive: -0.131 | inactive: 0.063 | inactive: -0.032 | inactive: -0.028 | inactive: -0.056 | inactive: 0.037 | inactive: -0.092 | inactive: -0.109 | inactive: -0.039 | inactive: 0.016 | inactive: -0.169 |  | inactive: 0.035 | 
BRAF (UniProt P15056) | active: 1.03 | active: 0.765 | inactive: 0.012 | inactive: -0.069 | inactive: -0.044 | inactive: -0.023 | inactive: -0.11 | inactive: 0.037 | inactive: 0.017 | inactive: -0.025 | inactive: -0.019 | inactive: -0.071 | inactive: 0.016 | inactive: 0.067 | inactive: -0.016 | active: 0.984 | inactive: 0.043 | inactive: -0.021 | inactive: -0.019 | inactive: 0.045

An excerpt of these results, with tabs:
Target	log2 fold change (vemurafenib)	log2 fold change [1]	log2 fold change (barasertib)	log2 fold change [2]	log2 fold change (volasertib)	log2 fold change [3]	log2 fold change [4]	log2 fold change [5]	log2 fold change (saracatinib)	log2 fold change (sotrastaurin)	log2 fold change (alvocidib)	log2 fold change (Tubastatin A)	log2 fold change [6]	log2 fold change (defactinib)	log2 fold change [7]	log2 fold change (encorafenib)	log2 fold change [8]	log2 fold change (alisertib)	log2 fold change [9]	log2 fold change (gefitinib)
BICD1 (UniProt Q96G01)	inactive: -0.083	inactive: -0.004	inactive: -0.054	inactive: 0.055	inactive: -0.008	inactive: -0.003	inactive: -0.104	inactive: 0.054	inactive: 0.023	inactive: 0.003	inactive: -0.01	inactive: 0.012	inactive: 0.017	inactive: 0.011	inactive: 0.012	inactive: -0.016	inactive: 0.067	inactive: 0.025	inactive: 0.009	inactive: -0.035
BOD1L1 (UniProt Q8NFC6)	inactive: -0.02	inactive: 0.015	inactive: 0.035	inactive: 0.068	inactive: 0.02	inactive: -0.026	inactive: -0.046	inactive: 0.04	inactive: 0.012	inactive: 0.003	inactive: -0.028	inactive: 0.04	inactive: 0.024	inactive: 0.013	inactive: 0.008	inactive: 0.011	inactive: 0.008	inactive: -0.009	inactive: 0.02	inactive: -0.007
